Measured values as given in US4612366A, “Cyclic hexapeptide somatostatin analogs” (Merck & Co., Inc., priority 1985, dated 1986).
Part of at least one peptide drawing is inferred or uncertain, most often the ends. Residues, ends and D or L forms follow the SMILES beside them.

Tests used:
portal vein insulin = experiment: Decrease of portal vein insulin levels in anesthetized rats, compared to somatostatin; assay type: in vivo, rat; settings: multiples or fractions of the effect of somatostatin (= 1); urethane-anesthetized male Sprague-Dawley rats, external jugular vein, portal vein blood after 5 minutes
Protocol: (§1) Analogs of somatostatin were compared to somatostatin in their ability to decrease the levels of portal vein glucagon and insulin in anesthetized rats. Male Sprague-Dawley rats (Charles River CD) weighing 160-200 g were anestetized with urethane (150 mg/100 g of body weight; Aldrich). Saline or peptides were administered via the external jugular vein. After 5 minutes, the portal vein was exposed, and blood was collected via syringe containing 3 mg of EDTA and placed in chilled tubes containing 100 μl of Trasylol (FBA Pharmaceuticals) for subsequent hormone analysis. Plasma levels of glucagon were determined by the method of Faloona and Unger, Methods of Hormone Radioimmunossay, Jaffe and Behrman (Eds), Academic Press, New York, Vol. II, pp. 257-527 (1976), utilizing glucagon antisera 30K obtained from R. Unger (Dallas, TX). Plasma levels of insulin were determined by a modification of the procedure of Herbert et al., J. Clin. Endocrinol. Metab., 25, 1375-1384 (1965).
(§2) The test results for some of the compounds of this invention are recorded below with the results for somatostatin listed first and given the arbitrary value of 1. The results for the instant compounds are given as multiples or fractions of the effect of somatostatin. The first of the instant compounds listed is the compound prepared in Example 1-5. The compound is written slightly different, however, to conform to the order of the amino acids found in somatostatin.

portal vein glucagon = experiment: Decrease of portal vein glucagon levels in anesthetized rats, compared to somatostatin; assay type: in vivo, rat; settings: multiples or fractions of the effect of somatostatin (= 1); urethane-anesthetized male Sprague-Dawley rats, external jugular vein, portal vein blood after 5 minutes
Protocol: as §1, §2

SMILES	Insulin Release Inhibition (portal vein insulin)	Glucagon Inhibition (portal vein glucagon)
C[C@@H](O)[C@@H]1NC(=O)[C@H](CCCCN)NC(=O)[C@@H](Cc2c[nH]c3ccccc23)NC(=O)[C@H](Cc2ccccc2)NC(=O)[C@@H]2C[C@@H](O)CN2C(=O)[C@H](Cc2ccccc2)NC1=O [Cyclo(D-Trp-Lys-Thr-Phe-Pro-(γ-t-OH)-Phe)] (HELM PEPTIDE1{F.[Hyp].F.[dW].K.T}$PEPTIDE1,PEPTIDE1,1:R1-6:R2$$$V2.0)	18	15
CC(=O)O[C@H]1C[C@H]2C(=O)N[C@@H](Cc3ccccc3)C(=O)N[C@H](Cc3c[nH]c4ccccc34)C(=O)N[C@@H](CCCCN)C(=O)N[C@@H]([C@@H](C)O)C(=O)N[C@@H](Cc3ccccc3)C(=O)N2C1 [Cyclo(Phe-Pro(γ-cis-OAc)-Phe-D-Trp-Lys-Thr)] (HELM PEPTIDE1{F.[O=C([C@@H]1C[C@H](O[*:3])CN1[*:1])[*:2]].F.[dW].K.T}|PEPTIDE2{[ac]}$PEPTIDE1,PEPTIDE2,2:R3-1:R2|PEPTIDE1,PEPTIDE1,1:R1-6:R2$$$V2.0)	95	84
C[C@@H](O)[C@@H]1NC(=O)[C@H](CCCCN)NC(=O)[C@@H](Cc2c[nH]c3ccccc23)NC(=O)[C@H](Cc2ccccc2)NC(=O)[C@@H]2C[C@H](O)CN2C(=O)[C@H](Cc2ccccc2)NC1=O [Cyclo(Phe-Pro(γ-cis-OH)-Phe-D-Trp-Lys-Thr)] (HELM PEPTIDE1{F.[O=C([C@@H]1C[C@H](O)CN1[*:1])[*:2]].F.[dW].K.T}$PEPTIDE1,PEPTIDE1,1:R1-6:R2$$$V2.0)	68	71
C[C@@H](O)[C@@H]1NC(=O)[C@H](CCCCN)NC(=O)[C@H](Cc2c[nH]c3ccccc23)NC(=O)[C@H](Cc2ccccc2)NC(=O)[C@@H]2C[C@@H](O)CN2C(=O)[C@H](Cc2ccccc2)NC1=O [Cyclo(Phe-Pro(γ-t-OH)Phe-Trp-Lys-Thr)] (HELM PEPTIDE1{F.[Hyp].F.W.K.T}$PEPTIDE1,PEPTIDE1,1:R1-6:R2$$$V2.0)	5.6	6
CC(=O)O[C@@H]1C[C@H]2C(=O)N[C@@H](Cc3ccccc3)C(=O)N[C@H](Cc3c[nH]c4ccccc34)C(=O)N[C@@H](CCCCN)C(=O)N[C@@H]([C@@H](C)O)C(=O)N[C@@H](Cc3ccccc3)C(=O)N2C1 [Cyclo-(Pro(γ-t-OAc)-Phe-D-Trp-Lys-Thr-Phe)] (HELM PEPTIDE1{F.[O=C([C@@H]1C[C@@H](O[*:3])CN1[*:1])[*:2]].F.[dW].K.T}|PEPTIDE2{[ac]}$PEPTIDE1,PEPTIDE2,2:R3-1:R2|PEPTIDE1,PEPTIDE1,1:R1-6:R2$$$V2.0)	10	20
